Assay: Quantification of endogenous amount of the active substance in tobacco leaves (HPLC)

In the case of `CC(/C=C/[C@@H]1[C@@]2(C)CCCC(C)(C)[C@@H]2CC[C@@]1(C)O)=C\CO` [WAF-1, (11E,13E)-labda-11,13-diene-8α,15-diol], the “endogenous content in leaves” value (30 minutes after wounding) is reported as 32±4 ng/g FW, the “increase of endogenous content after wounding” value (30 minutes after wounding) is reported as 1.3 fold and the “endogenous content in leaves” value (180 minutes after wounding) is reported as 60±7 ng/g FW. The “increase of endogenous content after wounding” value (180 minutes after wounding) was “about 3 fold” and the “endogenous content in leaves” value (healthy plant leaves) was 24 ng/g FW.

Source: US20060003896A1, “Novel diterpenoid compounds imparting stress resistance to plants” (National Institute of Agrobiological Sciences, priority 2002, published 2006)
